Reference: US9040481B2 (The General Hospital Corporation, priority 2010, dated 2015)

Assay: peptide synthesis
Details: whole synthesis, HPLC and mass spectrometry

Substance | final HPLC purity [%]
PEPTIDE1{F.I.A.W.L.V.K.G.R.[am]}$$$$V2.0 | >98
FIAWLVRGRG | >98

Plain letter strings leave the end groups untold. Strings that start with PEPTIDE1 are HELM notation: dots part the residues, brackets hold end groups and non-standard residues.
